According to the supplement of paper PMC7661543:
± gives the standard deviation of the averaged measurements. The effect of the compound repeats well; differences between the knockouts mostly do not.

Tested on: HCC-38
Test: relative cell number vs DMSO control (72 h) (% of DMSO); higher = less growth inhibition (more cells)
Description: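 QMAP-Seq: a pool of 5 breast cancer cell lines (ZR-75-1, SKBR3, HCC-38, MDA-MB-231, BT-20), each carrying 12 doxycycline-inducible Cas9 sgRNA perturbations (11 knockouts plus non-targeting sgNT), was treated with compounds for 72 h at four 10-fold doses (10 nM-10 uM or 1 nM-1 uM range). Barcodes were amplified and sequenced, and cell number was interpolated from 293T spike-in standard curves. The result is expressed as % of the median of DMSO wells. Two biological replicates.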

Cc1cnc(Nc2ccc(OCCN3CCCC3)cc2)nc1Nc1cccc(S(=O)(=O)NC(C)(C)C)c1
Settings	relative cell number
sgRNA knockout: sgATF3, 10 nM	92.4 ± 4.6
sgRNA knockout: sgATF3, 100 nM	98.8 ± 3.7
sgRNA knockout: sgATF3, 1000 nM	66 ± 10
sgRNA knockout: sgATF3, 10000 nM	14.3 ± 1
sgRNA knockout: sgATF4, 10 nM	96.5 ± 10
sgRNA knockout: sgATF4, 100 nM	99.8 ± 5
sgRNA knockout: sgATF4, 1000 nM	68 ± 5
sgRNA knockout: sgATF4, 10000 nM	14.7 ± 0.57
sgRNA knockout: sgATF6, 10 nM	95.4 ± 18
sgRNA knockout: sgATF6, 100 nM	110 ± 4.8
sgRNA knockout: sgATF6, 1000 nM	78 ± 5.7
sgRNA knockout: sgATF6, 10000 nM	13.8 ± 3.2
sgRNA knockout: sgATG7, 10 nM	96.9 ± 1.8
sgRNA knockout: sgATG7, 100 nM	108 ± 1.6
sgRNA knockout: sgATG7, 1000 nM	66.6 ± 4.2
sgRNA knockout: sgATG7, 10000 nM	14.63 ± 0.088
sgRNA knockout: sgERN1, 10 nM	97.8 ± 7
sgRNA knockout: sgERN1, 100 nM	107 ± 14
sgRNA knockout: sgERN1, 1000 nM	71.9 ± 7.2
sgRNA knockout: sgERN1, 10000 nM	9.54 ± 0.12
sgRNA knockout: sgHSF1, 10 nM	99 ± 31
sgRNA knockout: sgHSF1, 100 nM	93.4 ± 13
sgRNA knockout: sgHSF1, 1000 nM	69.4 ± 22
sgRNA knockout: sgHSF1, 10000 nM	15.5 ± 2.1
sgRNA knockout: sgHSF2, 10 nM	98.8 ± 16
sgRNA knockout: sgHSF2, 100 nM	109 ± 20
sgRNA knockout: sgHSF2, 1000 nM	74.3 ± 8.1
sgRNA knockout: sgHSF2, 10000 nM	14.9 ± 4.3
sgRNA knockout: sgKEAP1, 10 nM	92.3 ± 21
sgRNA knockout: sgKEAP1, 100 nM	91.8 ± 4.4
sgRNA knockout: sgKEAP1, 1000 nM	73.3 ± 2.4
sgRNA knockout: sgKEAP1, 10000 nM	18.4 ± 2.8
sgRNA knockout: sgNFE2L2, 10 nM	100 ± 20
sgRNA knockout: sgNFE2L2, 100 nM	102 ± 1.8
sgRNA knockout: sgNFE2L2, 1000 nM	62.9 ± 5.1
sgRNA knockout: sgNFE2L2, 10000 nM	13.5 ± 0.73
sgRNA knockout: sgSLC35F2, 10 nM	101 ± 18
sgRNA knockout: sgSLC35F2, 100 nM	102 ± 5.2
sgRNA knockout: sgSLC35F2, 1000 nM	69.6 ± 4.1
sgRNA knockout: sgSLC35F2, 10000 nM	15.1 ± 0.56
sgRNA knockout: sgXBP1, 10 nM	99 ± 9
sgRNA knockout: sgXBP1, 100 nM	102 ± 2.9
sgRNA knockout: sgXBP1, 1000 nM	68.9 ± 12
sgRNA knockout: sgXBP1, 10000 nM	12.9 ± 0.61

O=c1ncccn1[C@@H]1O[C@H](CO)[C@@H](O)[C@H]1O [Zebularine]
Settings	relative cell number
sgRNA knockout: sgATF3, 10 nM	112 ± 21
sgRNA knockout: sgATF3, 100 nM	107 ± 7.2
sgRNA knockout: sgATF3, 1000 nM	100.5 ± 0.21
sgRNA knockout: sgATF3, 10000 nM	115 ± 3.4
sgRNA knockout: sgATF4, 10 nM	117 ± 28
sgRNA knockout: sgATF4, 100 nM	96.2 ± 2.2
sgRNA knockout: sgATF4, 1000 nM	104 ± 8.9
sgRNA knockout: sgATF4, 10000 nM	107 ± 6.4
sgRNA knockout: sgATF6, 10 nM	116 ± 48
sgRNA knockout: sgATF6, 100 nM	99.6 ± 4
sgRNA knockout: sgATF6, 1000 nM	107 ± 24
sgRNA knockout: sgATF6, 10000 nM	95.5 ± 15
sgRNA knockout: sgATG7, 10 nM	113 ± 36
sgRNA knockout: sgATG7, 100 nM	101 ± 8.9
sgRNA knockout: sgATG7, 1000 nM	93.5 ± 3.7
sgRNA knockout: sgATG7, 10000 nM	105 ± 7.3
sgRNA knockout: sgERN1, 10 nM	107 ± 24
sgRNA knockout: sgERN1, 100 nM	106 ± 3.6
sgRNA knockout: sgERN1, 1000 nM	97.2 ± 7
sgRNA knockout: sgERN1, 10000 nM	108 ± 7.9
sgRNA knockout: sgHSF1, 10 nM	97.3 ± 1.6
sgRNA knockout: sgHSF1, 100 nM	97.2 ± 25
sgRNA knockout: sgHSF1, 1000 nM	85.1 ± 24
sgRNA knockout: sgHSF1, 10000 nM	97.8 ± 19
sgRNA knockout: sgHSF2, 10 nM	116 ± 17
sgRNA knockout: sgHSF2, 100 nM	99.2 ± 10
sgRNA knockout: sgHSF2, 1000 nM	116 ± 16
sgRNA knockout: sgHSF2, 10000 nM	114.8 ± 0.86
sgRNA knockout: sgKEAP1, 10 nM	108 ± 1.3
sgRNA knockout: sgKEAP1, 100 nM	101 ± 9.1
sgRNA knockout: sgKEAP1, 1000 nM	106 ± 40
sgRNA knockout: sgKEAP1, 10000 nM	108 ± 11
sgRNA knockout: sgNFE2L2, 10 nM	110 ± 33
sgRNA knockout: sgNFE2L2, 100 nM	99.4 ± 18
sgRNA knockout: sgNFE2L2, 1000 nM	108 ± 1.5
sgRNA knockout: sgNFE2L2, 10000 nM	113 ± 15
sgRNA knockout: sgSLC35F2, 10 nM	117 ± 20
sgRNA knockout: sgSLC35F2, 100 nM	106 ± 13
sgRNA knockout: sgSLC35F2, 1000 nM	99.99 ± 0.64
sgRNA knockout: sgSLC35F2, 10000 nM	105 ± 1.7
sgRNA knockout: sgXBP1, 10 nM	115 ± 28
sgRNA knockout: sgXBP1, 100 nM	101 ± 9.9
sgRNA knockout: sgXBP1, 1000 nM	104 ± 15
sgRNA knockout: sgXBP1, 10000 nM	115 ± 19

C[C@@H](Oc1cc(-n2cnc3ccc(CN4CCN(C)CC4)cc32)sc1C(N)=O)c1ccccc1C(F)(F)F
Settings	relative cell number
sgRNA knockout: sgATF3, 10 nM	23.4 ± 3.1
sgRNA knockout: sgATF3, 100 nM	16.1 ± 6.5
sgRNA knockout: sgATF3, 1000 nM	21.5 ± 5.3
sgRNA knockout: sgATF3, 10000 nM	15.1 ± 1.5
sgRNA knockout: sgATF4, 10 nM	19.1 ± 2.3
sgRNA knockout: sgATF4, 100 nM	12.5 ± 0.9
sgRNA knockout: sgATF4, 1000 nM	18 ± 2.6
sgRNA knockout: sgATF4, 10000 nM	14.3 ± 2.9
sgRNA knockout: sgATF6, 10 nM	26.7 ± 7.6
sgRNA knockout: sgATF6, 100 nM	14.8 ± 1.6
sgRNA knockout: sgATF6, 1000 nM	21 ± 3.1
sgRNA knockout: sgATF6, 10000 nM	17 ± 1.3
sgRNA knockout: sgATG7, 10 nM	23.7 ± 6.7
sgRNA knockout: sgATG7, 100 nM	14.7 ± 3.1
sgRNA knockout: sgATG7, 1000 nM	20.7 ± 0.99
sgRNA knockout: sgATG7, 10000 nM	18.1 ± 3.8
sgRNA knockout: sgERN1, 10 nM	23.5 ± 4.8
sgRNA knockout: sgERN1, 100 nM	20.7 ± 2.1
sgRNA knockout: sgERN1, 1000 nM	18.6 ± 3.7
sgRNA knockout: sgERN1, 10000 nM	18.7 ± 4
sgRNA knockout: sgHSF1, 10 nM	22.4 ± 11
sgRNA knockout: sgHSF1, 100 nM	18 ± 8.1
sgRNA knockout: sgHSF1, 1000 nM	21.9 ± 5.4
sgRNA knockout: sgHSF1, 10000 nM	23.4 ± 0.71
sgRNA knockout: sgHSF2, 10 nM	29.1 ± 1.5
sgRNA knockout: sgHSF2, 100 nM	16.1 ± 6.4
sgRNA knockout: sgHSF2, 1000 nM	18.6 ± 5.1
sgRNA knockout: sgHSF2, 10000 nM	18.8 ± 4.7
sgRNA knockout: sgKEAP1, 10 nM	22.4 ± 3.4
sgRNA knockout: sgKEAP1, 100 nM	23.5 ± 9.9
sgRNA knockout: sgKEAP1, 1000 nM	23 ± 10
sgRNA knockout: sgKEAP1, 10000 nM	27.7 ± 3.5
sgRNA knockout: sgNFE2L2, 10 nM	19.9 ± 4.2
sgRNA knockout: sgNFE2L2, 100 nM	11.7 ± 2.8
sgRNA knockout: sgNFE2L2, 1000 nM	17.5 ± 0.82
sgRNA knockout: sgNFE2L2, 10000 nM	13.8 ± 1.9
sgRNA knockout: sgSLC35F2, 10 nM	23.2 ± 7.5
sgRNA knockout: sgSLC35F2, 100 nM	17.5 ± 4.5
sgRNA knockout: sgSLC35F2, 1000 nM	21.9 ± 1.1
sgRNA knockout: sgSLC35F2, 10000 nM	16.5 ± 3
sgRNA knockout: sgXBP1, 10 nM	24 ± 5.9
sgRNA knockout: sgXBP1, 100 nM	18.1 ± 0.45
sgRNA knockout: sgXBP1, 1000 nM	21.5 ± 1.9
sgRNA knockout: sgXBP1, 10000 nM	17.2 ± 2.8
